Results: US20080281408A1
These are yes or no findings as the source states them, for the method shown. Some entries that bind do so weakly or less than the wild type.

Sequences of proteins named here, by UniProt entry; tags and fusion partners are left off. A change or cut given only in a name is not applied to a line headed by its entry. Residues count along the entry.
UniProt P02453: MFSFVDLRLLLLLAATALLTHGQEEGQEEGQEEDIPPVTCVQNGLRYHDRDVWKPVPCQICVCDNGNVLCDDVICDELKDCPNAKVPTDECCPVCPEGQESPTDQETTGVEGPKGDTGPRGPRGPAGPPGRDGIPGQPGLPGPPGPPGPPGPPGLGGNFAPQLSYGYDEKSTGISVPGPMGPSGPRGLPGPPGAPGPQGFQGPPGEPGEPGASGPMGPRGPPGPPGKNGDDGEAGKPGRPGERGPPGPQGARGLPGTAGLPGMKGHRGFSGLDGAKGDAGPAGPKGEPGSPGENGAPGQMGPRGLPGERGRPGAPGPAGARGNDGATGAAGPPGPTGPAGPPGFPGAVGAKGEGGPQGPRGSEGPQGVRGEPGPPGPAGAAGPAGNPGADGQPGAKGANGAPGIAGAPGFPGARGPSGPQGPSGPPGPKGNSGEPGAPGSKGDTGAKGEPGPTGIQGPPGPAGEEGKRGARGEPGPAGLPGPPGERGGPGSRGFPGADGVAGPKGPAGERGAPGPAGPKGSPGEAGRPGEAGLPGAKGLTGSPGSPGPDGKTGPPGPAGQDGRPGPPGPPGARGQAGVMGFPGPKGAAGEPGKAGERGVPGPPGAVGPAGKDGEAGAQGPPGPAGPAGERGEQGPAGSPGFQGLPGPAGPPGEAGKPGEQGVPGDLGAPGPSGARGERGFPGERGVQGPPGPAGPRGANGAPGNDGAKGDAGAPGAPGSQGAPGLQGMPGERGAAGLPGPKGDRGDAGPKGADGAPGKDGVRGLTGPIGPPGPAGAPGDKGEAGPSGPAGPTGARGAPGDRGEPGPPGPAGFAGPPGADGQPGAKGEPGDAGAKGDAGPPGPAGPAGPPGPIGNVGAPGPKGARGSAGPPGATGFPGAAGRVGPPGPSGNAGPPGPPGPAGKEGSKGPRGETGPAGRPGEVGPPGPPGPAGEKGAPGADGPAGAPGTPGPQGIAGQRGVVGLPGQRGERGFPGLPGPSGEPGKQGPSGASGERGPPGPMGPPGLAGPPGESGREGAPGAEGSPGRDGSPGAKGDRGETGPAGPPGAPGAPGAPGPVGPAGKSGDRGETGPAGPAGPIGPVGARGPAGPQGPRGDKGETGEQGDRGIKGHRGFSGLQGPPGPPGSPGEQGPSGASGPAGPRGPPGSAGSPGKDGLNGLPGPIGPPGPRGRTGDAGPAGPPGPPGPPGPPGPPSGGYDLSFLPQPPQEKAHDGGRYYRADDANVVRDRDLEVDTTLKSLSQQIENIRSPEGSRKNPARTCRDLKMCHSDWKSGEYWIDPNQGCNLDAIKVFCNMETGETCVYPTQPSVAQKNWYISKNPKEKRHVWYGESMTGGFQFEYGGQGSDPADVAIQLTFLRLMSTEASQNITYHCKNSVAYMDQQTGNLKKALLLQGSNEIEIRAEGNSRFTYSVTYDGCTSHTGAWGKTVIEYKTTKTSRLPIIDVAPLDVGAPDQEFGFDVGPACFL
UniProt P02465: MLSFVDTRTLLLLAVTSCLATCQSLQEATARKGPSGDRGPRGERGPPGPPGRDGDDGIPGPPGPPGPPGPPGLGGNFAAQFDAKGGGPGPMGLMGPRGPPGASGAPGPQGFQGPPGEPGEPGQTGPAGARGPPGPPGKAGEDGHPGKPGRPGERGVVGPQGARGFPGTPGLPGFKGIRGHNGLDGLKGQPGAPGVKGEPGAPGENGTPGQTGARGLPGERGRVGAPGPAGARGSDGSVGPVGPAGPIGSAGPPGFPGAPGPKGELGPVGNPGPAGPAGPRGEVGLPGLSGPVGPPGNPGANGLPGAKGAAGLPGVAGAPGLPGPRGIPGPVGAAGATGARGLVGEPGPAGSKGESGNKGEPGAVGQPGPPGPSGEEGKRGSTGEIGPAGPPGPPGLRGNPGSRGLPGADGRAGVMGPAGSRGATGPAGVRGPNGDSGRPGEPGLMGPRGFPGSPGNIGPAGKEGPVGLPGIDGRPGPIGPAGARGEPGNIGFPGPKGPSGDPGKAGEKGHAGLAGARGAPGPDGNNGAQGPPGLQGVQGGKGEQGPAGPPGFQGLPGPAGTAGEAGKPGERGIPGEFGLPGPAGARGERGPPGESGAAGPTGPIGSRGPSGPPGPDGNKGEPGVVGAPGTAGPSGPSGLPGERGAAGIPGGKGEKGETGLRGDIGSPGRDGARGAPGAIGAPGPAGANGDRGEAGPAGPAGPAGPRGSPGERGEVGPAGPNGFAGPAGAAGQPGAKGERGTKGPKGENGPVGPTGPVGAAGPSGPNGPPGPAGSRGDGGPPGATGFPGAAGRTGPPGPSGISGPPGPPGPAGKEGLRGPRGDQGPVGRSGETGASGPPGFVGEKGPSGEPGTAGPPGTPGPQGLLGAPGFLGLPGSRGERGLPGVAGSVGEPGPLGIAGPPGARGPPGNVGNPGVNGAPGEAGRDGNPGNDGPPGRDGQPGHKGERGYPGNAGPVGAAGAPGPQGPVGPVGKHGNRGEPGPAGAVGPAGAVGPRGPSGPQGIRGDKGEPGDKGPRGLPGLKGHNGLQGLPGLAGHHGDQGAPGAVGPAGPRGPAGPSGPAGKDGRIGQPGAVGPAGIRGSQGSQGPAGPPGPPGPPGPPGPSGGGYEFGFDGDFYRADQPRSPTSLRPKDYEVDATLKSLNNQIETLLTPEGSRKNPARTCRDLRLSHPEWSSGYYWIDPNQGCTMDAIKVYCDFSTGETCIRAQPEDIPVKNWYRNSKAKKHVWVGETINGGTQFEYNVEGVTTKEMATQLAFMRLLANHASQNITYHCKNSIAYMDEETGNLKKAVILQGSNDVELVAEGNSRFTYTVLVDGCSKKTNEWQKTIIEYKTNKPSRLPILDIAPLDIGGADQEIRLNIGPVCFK
UniProt P14210, residues 32-728: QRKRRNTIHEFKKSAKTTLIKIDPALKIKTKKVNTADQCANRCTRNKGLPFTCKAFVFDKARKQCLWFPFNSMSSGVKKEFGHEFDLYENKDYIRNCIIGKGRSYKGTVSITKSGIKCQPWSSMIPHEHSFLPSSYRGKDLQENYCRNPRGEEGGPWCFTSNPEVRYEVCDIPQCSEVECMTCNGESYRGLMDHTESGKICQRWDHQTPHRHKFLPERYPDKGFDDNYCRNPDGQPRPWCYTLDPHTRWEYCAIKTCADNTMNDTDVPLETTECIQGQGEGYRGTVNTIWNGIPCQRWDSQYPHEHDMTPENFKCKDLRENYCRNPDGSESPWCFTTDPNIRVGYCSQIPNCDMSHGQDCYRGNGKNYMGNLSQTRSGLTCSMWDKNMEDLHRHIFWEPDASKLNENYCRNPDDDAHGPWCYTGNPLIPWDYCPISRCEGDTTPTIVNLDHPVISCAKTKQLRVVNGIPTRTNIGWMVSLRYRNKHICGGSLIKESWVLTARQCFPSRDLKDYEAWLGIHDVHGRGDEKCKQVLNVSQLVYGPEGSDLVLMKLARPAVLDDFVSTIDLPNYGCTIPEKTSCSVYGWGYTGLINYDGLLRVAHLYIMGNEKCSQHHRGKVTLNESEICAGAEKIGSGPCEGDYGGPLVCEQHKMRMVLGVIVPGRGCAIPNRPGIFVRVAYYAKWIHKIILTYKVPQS

Legend:
[1] = target: T1, type 1 collagen (bovine) (CELLGEN, Koken Co., Ltd.) (bovine) (UniProt P02453+P02465); test: ELISA on collagen-coated plate, detection with anti-HGF antibody
[2] = target: T1, type 1 collagen (bovine) (CELLGEN, Koken Co., Ltd.) (bovine); test: ELISA on collagen-coated plate, detection with anti-human HGF antibody

- binding [1]: binds
- binding [2]: binds
Substance: HGF (TOYOBO HGF-101, CHO cell expressing recombinant protein) (from UniProt P14210 32-728) (ligand)
